Test results taken from paper PMC3195953.
Results are given in words; binding and its absence hold for the method and conditions named. Binding seen in cells or lysates may run through a third protein. Some entries that bind do so weakly or less than the wild type.

By UniProt entry, the sequences of proteins in these tests, tags left out.
UniProt P08238: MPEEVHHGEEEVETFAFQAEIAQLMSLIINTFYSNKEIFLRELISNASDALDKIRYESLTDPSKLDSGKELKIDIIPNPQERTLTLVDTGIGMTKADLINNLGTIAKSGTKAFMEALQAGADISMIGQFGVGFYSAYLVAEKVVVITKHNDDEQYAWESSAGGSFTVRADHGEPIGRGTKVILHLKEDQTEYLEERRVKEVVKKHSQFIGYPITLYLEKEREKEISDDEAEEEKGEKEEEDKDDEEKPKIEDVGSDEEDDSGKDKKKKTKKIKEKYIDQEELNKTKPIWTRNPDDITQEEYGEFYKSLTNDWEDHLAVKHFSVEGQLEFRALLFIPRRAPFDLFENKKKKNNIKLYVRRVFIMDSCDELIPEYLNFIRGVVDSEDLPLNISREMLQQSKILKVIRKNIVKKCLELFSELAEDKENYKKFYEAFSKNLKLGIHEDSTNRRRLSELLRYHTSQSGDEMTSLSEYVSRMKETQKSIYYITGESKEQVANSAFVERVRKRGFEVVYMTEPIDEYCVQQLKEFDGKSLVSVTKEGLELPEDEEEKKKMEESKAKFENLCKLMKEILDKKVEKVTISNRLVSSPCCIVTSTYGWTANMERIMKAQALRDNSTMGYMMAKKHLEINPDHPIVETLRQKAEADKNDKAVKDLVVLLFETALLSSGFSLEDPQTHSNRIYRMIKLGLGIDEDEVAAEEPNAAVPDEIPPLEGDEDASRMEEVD
UniProt O15131: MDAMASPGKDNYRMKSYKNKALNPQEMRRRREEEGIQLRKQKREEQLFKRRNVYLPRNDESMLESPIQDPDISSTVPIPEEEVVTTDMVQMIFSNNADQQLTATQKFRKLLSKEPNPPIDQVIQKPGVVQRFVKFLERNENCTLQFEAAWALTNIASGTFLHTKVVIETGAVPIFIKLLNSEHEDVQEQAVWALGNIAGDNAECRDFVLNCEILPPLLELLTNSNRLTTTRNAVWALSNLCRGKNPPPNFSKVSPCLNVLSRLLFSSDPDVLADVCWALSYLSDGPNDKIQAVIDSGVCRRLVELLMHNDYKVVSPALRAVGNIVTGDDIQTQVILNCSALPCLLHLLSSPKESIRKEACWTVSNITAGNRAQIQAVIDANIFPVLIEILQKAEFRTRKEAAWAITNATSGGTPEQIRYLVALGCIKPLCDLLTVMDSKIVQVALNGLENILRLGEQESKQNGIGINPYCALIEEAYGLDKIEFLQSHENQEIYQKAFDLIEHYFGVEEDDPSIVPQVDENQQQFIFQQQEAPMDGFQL

Assays:
Flag-tagged Aha1 = Flag-tagged Aha1 (UniProt O95433); assay: co-IP; triple-Flag-tagged bait transiently expressed in HEK 293T cells; lysis in 20 mM Tris-HCl pH 7.4, 150 mM KCl, 0.2 mM MgCl2, 1 mM dithiothreitol, 2% Triton X-100; anti-FLAG (M2) magnetic beads overnight at 4°C; washed with Tris-buffered saline; immunoblot
Flag-tagged exportin-1 = Flag-tagged exportin-1 (UniProt O14980); assay: as above

binding (Flag-tagged Aha1)	binding (Flag-tagged exportin-1)	Substance
binds	binds	Hsp90β (from UniProt P08238 1-724)
binds	binds	importin-α6 (from UniProt O15131 1-539)
binds	binds	Hsp90α (from UniProt P07900 1-732)
